± gives the standard deviation of the averaged measurements. The list shows a part of the results, in another mix than the full data.
Compound: Nc1ncnc2c1ncn2[C@@H]1O[C@H](COP(=O)(O)OP(=O)(O)OP(=O)(O)O)[C@@H](O)[C@H]1O [adenosine triphosphate]
Assay: NP40-soluble protein abundance relative to vehicle (solubility fold change) (ratio); higher = more soluble protein in presence of ATP
How it was run: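 Eight concentrations, 0.1 to 10 mM, were tested on Jurkat crude lysate for 10 min at room temperature and then 3 min at 37 °C, in three independent experiments. The lysate was solubilised with 0.8% NP40 and benzonase, ultracentrifuged, and the supernatant TMT-labelled for LC-MS/MS. Each value is the fold change against the detergent-processed vehicle in its own replicate, from vsn-normalised intensities.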

The chains behind the UniProt entries cited, without tags or fusion partners. Where a name states a change or a piece, a line headed by the entry shows the natural chain unless it says otherwise.
UniProt Q9BW19: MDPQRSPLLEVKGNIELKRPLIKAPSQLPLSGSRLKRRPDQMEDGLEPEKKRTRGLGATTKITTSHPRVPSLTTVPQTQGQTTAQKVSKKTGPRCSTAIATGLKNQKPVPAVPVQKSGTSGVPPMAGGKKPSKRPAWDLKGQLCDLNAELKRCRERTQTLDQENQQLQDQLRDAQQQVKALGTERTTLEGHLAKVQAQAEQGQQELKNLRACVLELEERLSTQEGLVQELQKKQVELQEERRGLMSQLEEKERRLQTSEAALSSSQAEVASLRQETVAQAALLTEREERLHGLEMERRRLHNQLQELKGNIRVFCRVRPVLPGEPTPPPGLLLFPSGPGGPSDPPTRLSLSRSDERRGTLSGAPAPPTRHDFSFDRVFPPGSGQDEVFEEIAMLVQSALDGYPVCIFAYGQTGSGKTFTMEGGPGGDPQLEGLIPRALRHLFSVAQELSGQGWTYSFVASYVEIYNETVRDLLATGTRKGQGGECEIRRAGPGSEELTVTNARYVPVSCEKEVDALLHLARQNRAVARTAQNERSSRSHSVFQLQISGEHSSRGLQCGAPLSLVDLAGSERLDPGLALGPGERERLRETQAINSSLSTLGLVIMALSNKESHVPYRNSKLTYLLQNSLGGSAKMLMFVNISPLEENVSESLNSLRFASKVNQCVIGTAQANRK
UniProt Q96T88: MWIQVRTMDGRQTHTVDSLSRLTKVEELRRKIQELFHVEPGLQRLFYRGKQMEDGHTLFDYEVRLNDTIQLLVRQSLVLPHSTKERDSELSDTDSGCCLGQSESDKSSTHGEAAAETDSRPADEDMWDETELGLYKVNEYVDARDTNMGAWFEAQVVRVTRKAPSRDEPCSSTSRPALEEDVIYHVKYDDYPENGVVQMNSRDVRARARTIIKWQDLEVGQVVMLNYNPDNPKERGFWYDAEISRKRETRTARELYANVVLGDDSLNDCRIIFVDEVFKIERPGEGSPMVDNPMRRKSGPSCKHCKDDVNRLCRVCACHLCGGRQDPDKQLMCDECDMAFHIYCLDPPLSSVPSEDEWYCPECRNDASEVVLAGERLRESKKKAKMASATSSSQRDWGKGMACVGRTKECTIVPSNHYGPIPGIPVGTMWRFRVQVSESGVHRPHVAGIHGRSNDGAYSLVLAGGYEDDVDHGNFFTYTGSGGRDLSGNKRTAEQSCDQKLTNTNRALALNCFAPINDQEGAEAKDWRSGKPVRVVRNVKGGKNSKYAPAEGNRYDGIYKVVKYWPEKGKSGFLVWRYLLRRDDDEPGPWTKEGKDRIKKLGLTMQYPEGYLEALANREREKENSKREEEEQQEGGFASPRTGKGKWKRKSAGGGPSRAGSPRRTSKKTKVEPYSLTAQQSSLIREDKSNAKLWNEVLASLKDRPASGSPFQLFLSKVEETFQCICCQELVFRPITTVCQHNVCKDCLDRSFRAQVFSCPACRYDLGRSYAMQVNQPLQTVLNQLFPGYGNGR
UniProt Q9BU61: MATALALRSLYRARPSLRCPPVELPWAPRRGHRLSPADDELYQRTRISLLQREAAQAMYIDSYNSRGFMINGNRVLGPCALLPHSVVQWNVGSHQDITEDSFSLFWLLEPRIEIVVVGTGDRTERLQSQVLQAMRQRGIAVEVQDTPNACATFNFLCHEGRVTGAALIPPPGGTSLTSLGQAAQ
UniProt Q9BV86: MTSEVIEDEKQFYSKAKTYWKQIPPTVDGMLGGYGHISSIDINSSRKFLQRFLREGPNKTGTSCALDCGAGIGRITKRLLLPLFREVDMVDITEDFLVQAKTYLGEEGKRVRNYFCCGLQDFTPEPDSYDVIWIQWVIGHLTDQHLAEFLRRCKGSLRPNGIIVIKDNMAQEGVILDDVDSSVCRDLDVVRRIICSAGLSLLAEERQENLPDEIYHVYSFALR

Target | NP40-soluble protein abundance (concentration: 1mM) | NP40-soluble protein abundance (concentration: 2mM) | NP40-soluble protein abundance (concentration: 4mM) | NP40-soluble protein abundance (concentration: 6mM) | NP40-soluble protein abundance (concentration: 8mM) | NP40-soluble protein abundance (concentration: 10mM)
KIFC1 (UniProt Q9BW19) | 1.05 ± 0.039 | 1.05 ± 0.025 | 1.04 ± 0.029 | 1.11 ± 0.016 | 1.08 ± 0.025 | 1.07 ± 0.013
UHRF1 (UniProt Q96T88) | 1.07 ± 0.065 | 1.07 ± 0.073 | 1.09 ± 0.082 | 1.16 ± 0.068 | 1.13 ± 0.086 | 1.15 ± 0.077
UniProt Q9BU61 | 0.995 ± 0.093 | 0.991 ± 0.051 | 0.943 ± 0.078 | 0.894 ± 0.079 | 0.966 ± 0.035 | 0.979 ± 0.034
UniProt Q9BV86 | 0.969 ± 0.063 | 0.978 ± 0.071 | 0.967 ± 0.072 | 0.941 ± 0.12 | 0.965 ± 0.092 | 0.923 ± 0.045

From the supplement of paper PMC6411743
